Data source: PubChem BioAssay AID1224829 (NIAID, 2016)
The whole screen tested about 3,800 reagents; this is a part drawn at random. 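Calls cover raised and lowered translocation; gene median uses one vendor's three siRNAs; qiagen siRNAs acted more weakly than ambion siRNAs.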 Unmarked entries are inactive. The numbers tell different reagents against one gene apart.

Purpose: 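Genes needed for LPS-driven NF-kappaB p65 nuclear entry in mouse macrophages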 (follow-up of hits)
Cells: mouse RAW264.7 G9 macrophage reporter cells
Reagent: single siRNA against mouse genes, 100 nM
Timing: 2 days of siRNA knock-down, then 40 min of LPS before fixing
Challenge: LPS (Salmonella minnesota R595) at 10 ng/ml
Measurement: 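High-content images after 40 min LPS exposure; GFP-p65 nucleus to surrounding ring signal ratio, normalised to plate median and non-targeting control wells, expressed as z-score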
Scale: p65 translocation z-score and gene median z-score, per vendor: higher = more nuclear NF-kappaB p65 after LPS
Call rule: 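Active means the replicate-mean z-score lies beyond plus or minus 2, in either direction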
Meaning of the calls: active = changed p65 translocation (either direction); inactive = no clear change

Or4x6 #1, siRNA vendor or control pool ambion single siRNA — p65 translocation z-score, replicate mean = 0.712; p65 translocation z-score, replicate 1 = 1.24; p65 translocation z-score, replicate 2 = 0.183; gene median z-score, per vendor = -0.712
Or4x6 #2, siRNA vendor or control pool ambion single siRNA — gene median z-score, per vendor = -0.712
Or4x6 #3, siRNA vendor or control pool ambion single siRNA — p65 translocation z-score, replicate mean = -2.68 (active); p65 translocation z-score, replicate 1 = -3.75; p65 translocation z-score, replicate 2 = -1.61; gene median z-score, per vendor = -0.712
Or4x6 #4, siRNA vendor or control pool qiagen single siRNA — p65 translocation z-score, replicate mean = 2.51 (active); p65 translocation z-score, replicate 1 = 3.05; p65 translocation z-score, replicate 2 = 1.98; gene median z-score, per vendor = -0.384
Or4x6 #5, siRNA vendor or control pool qiagen single siRNA — p65 translocation z-score, replicate mean = -0.384; p65 translocation z-score, replicate 1 = -0.0469; p65 translocation z-score, replicate 2 = -0.72; gene median z-score, per vendor = -0.384
Or4x6 #6, siRNA vendor or control pool qiagen single siRNA — p65 translocation z-score, replicate mean = -5.87 (active); p65 translocation z-score, replicate 1 = -2.15; p65 translocation z-score, replicate 2 = -9.59; gene median z-score, per vendor = -0.384
Fam89b #1, siRNA vendor or control pool ambion single siRNA — p65 translocation z-score, replicate mean = 4.09 (active); p65 translocation z-score, replicate 1 = 6.51; p65 translocation z-score, replicate 2 = 1.67; gene median z-score, per vendor = -1.02
Fam89b #2, siRNA vendor or control pool ambion single siRNA — p65 translocation z-score, replicate mean = -1.53; p65 translocation z-score, replicate 1 = -1.34; p65 translocation z-score, replicate 2 = -1.72; gene median z-score, per vendor = -1.02
Fam89b #3, siRNA vendor or control pool ambion single siRNA — p65 translocation z-score, replicate mean = -1.02; p65 translocation z-score, replicate 1 = -1.02; gene median z-score, per vendor = -1.02
Fam89b #4, siRNA vendor or control pool qiagen single siRNA — p65 translocation z-score, replicate mean = 1.04; p65 translocation z-score, replicate 1 = 1.34; p65 translocation z-score, replicate 2 = 0.749; gene median z-score, per vendor = 0.914
Fam89b #5, siRNA vendor or control pool qiagen single siRNA — p65 translocation z-score, replicate mean = 0.573; p65 translocation z-score, replicate 1 = 1.08; p65 translocation z-score, replicate 2 = 0.0673; gene median z-score, per vendor = 0.914
Fam89b #6, siRNA vendor or control pool qiagen single siRNA — p65 translocation z-score, replicate mean = 1.24; p65 translocation z-score, replicate 1 = 0.185; p65 translocation z-score, replicate 2 = 2.3; gene median z-score, per vendor = 0.914
Bend6 #1, siRNA vendor or control pool ambion single siRNA — p65 translocation z-score, replicate mean = 2.21 (active); p65 translocation z-score, replicate 1 = 2.21; p65 translocation z-score, replicate 2 = 2.21; gene median z-score, per vendor = -0.401
Bend6 #2, siRNA vendor or control pool ambion single siRNA — p65 translocation z-score, replicate mean = -0.401; p65 translocation z-score, replicate 1 = 0.38; p65 translocation z-score, replicate 2 = -1.18; gene median z-score, per vendor = -0.401
Bend6 #3, siRNA vendor or control pool ambion single siRNA — p65 translocation z-score, replicate mean = -2.99 (active); p65 translocation z-score, replicate 1 = -4.01; p65 translocation z-score, replicate 2 = -1.97; gene median z-score, per vendor = -0.401
Bend6 #4, siRNA vendor or control pool qiagen single siRNA — p65 translocation z-score, replicate mean = 2.2 (active); p65 translocation z-score, replicate 1 = 2.19; p65 translocation z-score, replicate 2 = 2.22; gene median z-score, per vendor = 0.596
Bend6 #5, siRNA vendor or control pool qiagen single siRNA — p65 translocation z-score, replicate mean = 0.596; p65 translocation z-score, replicate 1 = 0.533; p65 translocation z-score, replicate 2 = 0.658; gene median z-score, per vendor = 0.596
Bend6 #6, siRNA vendor or control pool qiagen single siRNA — p65 translocation z-score, replicate mean = -0.48; p65 translocation z-score, replicate 1 = -0.893; p65 translocation z-score, replicate 2 = -0.0662; gene median z-score, per vendor = 0.596
Aprt #1, siRNA vendor or control pool ambion single siRNA — p65 translocation z-score, replicate mean = 0.639; p65 translocation z-score, replicate 1 = 1.43; p65 translocation z-score, replicate 2 = -0.155; gene median z-score, per vendor = -0.165
Aprt #2, siRNA vendor or control pool ambion single siRNA — p65 translocation z-score, replicate mean = -0.14; p65 translocation z-score, replicate 1 = -0.174; p65 translocation z-score, replicate 2 = -0.106; gene median z-score, per vendor = -0.165
Aprt #3, siRNA vendor or control pool ambion single siRNA — p65 translocation z-score, replicate mean = -3.45 (active); p65 translocation z-score, replicate 1 = -3.43; p65 translocation z-score, replicate 2 = -3.47; gene median z-score, per vendor = -0.165
Aprt #4, siRNA vendor or control pool qiagen single siRNA — p65 translocation z-score, replicate mean = 1.61; p65 translocation z-score, replicate 1 = 0.685; p65 translocation z-score, replicate 2 = 2.53; gene median z-score, per vendor = -0.728
Aprt #5, siRNA vendor or control pool qiagen single siRNA — p65 translocation z-score, replicate mean = -0.728; p65 translocation z-score, replicate 1 = -0.659; p65 translocation z-score, replicate 2 = -0.797; gene median z-score, per vendor = -0.728
Aprt #6, siRNA vendor or control pool qiagen single siRNA — p65 translocation z-score, replicate mean = -4.13 (active); p65 translocation z-score, replicate 1 = -3.27; p65 translocation z-score, replicate 2 = -5; gene median z-score, per vendor = -0.728
Krtap9-1 #1, siRNA vendor or control pool ambion single siRNA — p65 translocation z-score, replicate mean = -2.08 (active); p65 translocation z-score, replicate 1 = -3.52; p65 translocation z-score, replicate 2 = -0.644; gene median z-score, per vendor = -2.11
Krtap9-1 #2, siRNA vendor or control pool ambion single siRNA — p65 translocation z-score, replicate mean = -0.439; p65 translocation z-score, replicate 1 = -1.19; p65 translocation z-score, replicate 2 = 0.316; gene median z-score, per vendor = -2.11
Krtap9-1 #3, siRNA vendor or control pool ambion single siRNA — p65 translocation z-score, replicate mean = -3.62 (active); p65 translocation z-score, replicate 1 = -3.02; p65 translocation z-score, replicate 2 = -4.21; gene median z-score, per vendor = -2.11
Krtap9-1 #4, siRNA vendor or control pool qiagen single siRNA — p65 translocation z-score, replicate mean = -1.11; p65 translocation z-score, replicate 1 = -0.9; p65 translocation z-score, replicate 2 = -1.31; gene median z-score, per vendor = -1.11
Krtap9-1 #5, siRNA vendor or control pool qiagen single siRNA — p65 translocation z-score, replicate mean = -1.04; p65 translocation z-score, replicate 1 = -1.57; p65 translocation z-score, replicate 2 = -0.506; gene median z-score, per vendor = -1.11
Krtap9-1 #6, siRNA vendor or control pool qiagen single siRNA — p65 translocation z-score, replicate mean = -1.31; p65 translocation z-score, replicate 1 = -2.08; p65 translocation z-score, replicate 2 = -0.549; gene median z-score, per vendor = -1.11

4 entries from above, arranged by “p65 translocation z-score, replicate 1”, highest first:
Aprt #1, siRNA vendor or control pool ambion single siRNA — p65 translocation z-score, replicate mean = 0.639; p65 translocation z-score, replicate 1 = 1.43; p65 translocation z-score, replicate 2 = -0.155; gene median z-score, per vendor = -0.165
Aprt #2, siRNA vendor or control pool ambion single siRNA — p65 translocation z-score, replicate mean = -0.14; p65 translocation z-score, replicate 1 = -0.174; p65 translocation z-score, replicate 2 = -0.106; gene median z-score, per vendor = -0.165
Bend6 #6, siRNA vendor or control pool qiagen single siRNA — p65 translocation z-score, replicate mean = -0.48; p65 translocation z-score, replicate 1 = -0.893; p65 translocation z-score, replicate 2 = -0.0662; gene median z-score, per vendor = 0.596
Aprt #3, siRNA vendor or control pool ambion single siRNA — p65 translocation z-score, replicate mean = -3.45 (active); p65 translocation z-score, replicate 1 = -3.43; p65 translocation z-score, replicate 2 = -3.47; gene median z-score, per vendor = -0.165
